Test results as given in the supplement of paper PMC12819154, “High-throughput peptide-centric local stability assay extends protein–ligand identification to membrane proteins, tissues and bacteria” (Nature Structural & Molecular Biology, 2025).
The list shows a part of the results. Most entries show no effect beyond the scatter of the controls.

The chains behind the UniProt entries cited, without tags or fusion partners. Where a name states a change or a piece, a line headed by the entry shows the natural chain unless it says otherwise.
UniProt Q08AD1: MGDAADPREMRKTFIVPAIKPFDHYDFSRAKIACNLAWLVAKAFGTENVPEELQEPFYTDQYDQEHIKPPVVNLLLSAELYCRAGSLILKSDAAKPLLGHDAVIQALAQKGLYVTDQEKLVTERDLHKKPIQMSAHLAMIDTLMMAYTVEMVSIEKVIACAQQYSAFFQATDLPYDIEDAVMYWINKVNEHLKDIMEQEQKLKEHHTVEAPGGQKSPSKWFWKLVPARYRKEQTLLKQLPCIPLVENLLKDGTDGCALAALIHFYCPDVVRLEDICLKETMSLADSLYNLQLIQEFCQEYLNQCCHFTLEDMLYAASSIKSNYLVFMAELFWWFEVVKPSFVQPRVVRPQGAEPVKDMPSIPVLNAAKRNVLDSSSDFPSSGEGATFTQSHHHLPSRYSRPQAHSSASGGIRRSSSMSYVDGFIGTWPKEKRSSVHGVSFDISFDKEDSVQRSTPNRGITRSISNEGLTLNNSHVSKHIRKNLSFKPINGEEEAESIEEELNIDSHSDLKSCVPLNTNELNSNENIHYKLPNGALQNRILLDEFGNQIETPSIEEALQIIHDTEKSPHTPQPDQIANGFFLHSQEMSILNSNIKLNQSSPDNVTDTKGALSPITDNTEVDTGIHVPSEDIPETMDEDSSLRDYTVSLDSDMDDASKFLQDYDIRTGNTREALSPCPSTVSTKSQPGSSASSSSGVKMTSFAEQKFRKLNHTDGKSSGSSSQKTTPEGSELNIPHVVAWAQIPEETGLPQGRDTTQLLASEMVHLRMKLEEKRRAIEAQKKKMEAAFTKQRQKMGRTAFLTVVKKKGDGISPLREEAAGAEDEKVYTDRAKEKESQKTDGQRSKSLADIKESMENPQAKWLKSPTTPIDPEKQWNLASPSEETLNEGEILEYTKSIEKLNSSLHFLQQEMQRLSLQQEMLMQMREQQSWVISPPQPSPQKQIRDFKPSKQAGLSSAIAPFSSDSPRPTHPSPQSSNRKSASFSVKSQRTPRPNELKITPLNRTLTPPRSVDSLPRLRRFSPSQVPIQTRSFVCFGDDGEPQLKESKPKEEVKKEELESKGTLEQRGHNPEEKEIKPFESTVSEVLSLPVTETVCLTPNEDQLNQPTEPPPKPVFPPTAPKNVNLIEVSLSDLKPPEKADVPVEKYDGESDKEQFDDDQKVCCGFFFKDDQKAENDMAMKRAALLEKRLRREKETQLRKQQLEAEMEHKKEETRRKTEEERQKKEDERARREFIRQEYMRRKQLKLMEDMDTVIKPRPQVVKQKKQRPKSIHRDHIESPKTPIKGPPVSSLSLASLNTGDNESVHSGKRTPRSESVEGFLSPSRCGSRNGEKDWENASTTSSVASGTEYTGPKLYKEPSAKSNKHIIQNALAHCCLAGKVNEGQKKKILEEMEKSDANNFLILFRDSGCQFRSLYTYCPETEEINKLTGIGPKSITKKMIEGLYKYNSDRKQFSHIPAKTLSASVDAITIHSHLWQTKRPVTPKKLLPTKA
UniProt Q12756: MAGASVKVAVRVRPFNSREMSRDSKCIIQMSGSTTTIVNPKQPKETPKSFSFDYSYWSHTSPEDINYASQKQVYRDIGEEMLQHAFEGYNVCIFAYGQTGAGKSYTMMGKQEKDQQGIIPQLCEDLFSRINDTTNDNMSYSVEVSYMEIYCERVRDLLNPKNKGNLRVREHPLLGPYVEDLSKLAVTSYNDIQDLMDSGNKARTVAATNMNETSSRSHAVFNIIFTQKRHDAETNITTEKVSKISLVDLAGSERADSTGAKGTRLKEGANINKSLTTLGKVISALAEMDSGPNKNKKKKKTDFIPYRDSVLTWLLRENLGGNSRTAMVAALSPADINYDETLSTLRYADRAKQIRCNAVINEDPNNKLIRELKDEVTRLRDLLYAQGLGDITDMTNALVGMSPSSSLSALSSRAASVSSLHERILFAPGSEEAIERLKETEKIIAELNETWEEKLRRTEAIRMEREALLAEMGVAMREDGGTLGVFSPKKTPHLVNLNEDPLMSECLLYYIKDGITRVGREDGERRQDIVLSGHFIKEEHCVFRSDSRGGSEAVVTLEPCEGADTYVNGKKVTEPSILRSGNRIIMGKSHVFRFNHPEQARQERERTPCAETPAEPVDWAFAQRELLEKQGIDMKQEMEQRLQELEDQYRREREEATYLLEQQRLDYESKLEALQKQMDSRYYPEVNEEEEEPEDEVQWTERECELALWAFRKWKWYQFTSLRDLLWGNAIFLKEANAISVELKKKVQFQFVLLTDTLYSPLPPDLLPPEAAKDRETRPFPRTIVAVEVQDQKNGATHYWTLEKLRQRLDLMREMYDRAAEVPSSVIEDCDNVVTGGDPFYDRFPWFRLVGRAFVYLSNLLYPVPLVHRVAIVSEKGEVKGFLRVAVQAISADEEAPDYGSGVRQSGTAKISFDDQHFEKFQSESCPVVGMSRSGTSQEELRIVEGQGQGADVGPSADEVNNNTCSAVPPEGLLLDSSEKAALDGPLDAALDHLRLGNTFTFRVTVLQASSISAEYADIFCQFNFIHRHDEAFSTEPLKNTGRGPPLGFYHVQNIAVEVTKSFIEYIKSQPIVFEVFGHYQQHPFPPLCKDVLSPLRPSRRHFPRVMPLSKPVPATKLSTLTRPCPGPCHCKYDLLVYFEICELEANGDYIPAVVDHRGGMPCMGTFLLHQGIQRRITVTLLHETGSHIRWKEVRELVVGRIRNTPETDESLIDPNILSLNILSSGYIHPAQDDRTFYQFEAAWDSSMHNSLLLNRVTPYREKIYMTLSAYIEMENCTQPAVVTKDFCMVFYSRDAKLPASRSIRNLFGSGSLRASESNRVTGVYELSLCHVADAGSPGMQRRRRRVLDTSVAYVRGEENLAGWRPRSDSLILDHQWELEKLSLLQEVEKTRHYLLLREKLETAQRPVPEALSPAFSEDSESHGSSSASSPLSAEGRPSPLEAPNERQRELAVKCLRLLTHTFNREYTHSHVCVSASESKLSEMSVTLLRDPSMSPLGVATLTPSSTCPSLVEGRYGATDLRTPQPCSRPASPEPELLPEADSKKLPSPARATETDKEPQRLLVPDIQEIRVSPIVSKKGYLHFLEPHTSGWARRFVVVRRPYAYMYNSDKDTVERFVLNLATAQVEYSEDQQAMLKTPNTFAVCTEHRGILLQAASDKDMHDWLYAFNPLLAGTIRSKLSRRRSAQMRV
UniProt Q12849: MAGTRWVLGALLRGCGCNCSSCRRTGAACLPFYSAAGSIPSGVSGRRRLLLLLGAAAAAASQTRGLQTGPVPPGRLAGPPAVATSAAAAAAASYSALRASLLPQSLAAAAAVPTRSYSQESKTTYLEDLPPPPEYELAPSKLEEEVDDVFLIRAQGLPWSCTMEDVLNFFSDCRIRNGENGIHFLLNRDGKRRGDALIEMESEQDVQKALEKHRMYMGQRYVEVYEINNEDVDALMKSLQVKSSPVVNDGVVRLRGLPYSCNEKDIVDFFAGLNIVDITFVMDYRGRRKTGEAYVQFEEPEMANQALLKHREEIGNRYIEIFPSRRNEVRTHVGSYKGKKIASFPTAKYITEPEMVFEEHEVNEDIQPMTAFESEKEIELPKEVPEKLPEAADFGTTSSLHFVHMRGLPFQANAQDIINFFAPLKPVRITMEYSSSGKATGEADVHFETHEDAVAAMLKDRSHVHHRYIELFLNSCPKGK
UniProt Q12798: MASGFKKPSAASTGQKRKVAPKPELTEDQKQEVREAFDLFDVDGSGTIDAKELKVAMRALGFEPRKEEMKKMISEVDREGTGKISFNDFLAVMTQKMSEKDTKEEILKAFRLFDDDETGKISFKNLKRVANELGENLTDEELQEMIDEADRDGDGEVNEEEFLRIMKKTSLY
UniProt Q03936: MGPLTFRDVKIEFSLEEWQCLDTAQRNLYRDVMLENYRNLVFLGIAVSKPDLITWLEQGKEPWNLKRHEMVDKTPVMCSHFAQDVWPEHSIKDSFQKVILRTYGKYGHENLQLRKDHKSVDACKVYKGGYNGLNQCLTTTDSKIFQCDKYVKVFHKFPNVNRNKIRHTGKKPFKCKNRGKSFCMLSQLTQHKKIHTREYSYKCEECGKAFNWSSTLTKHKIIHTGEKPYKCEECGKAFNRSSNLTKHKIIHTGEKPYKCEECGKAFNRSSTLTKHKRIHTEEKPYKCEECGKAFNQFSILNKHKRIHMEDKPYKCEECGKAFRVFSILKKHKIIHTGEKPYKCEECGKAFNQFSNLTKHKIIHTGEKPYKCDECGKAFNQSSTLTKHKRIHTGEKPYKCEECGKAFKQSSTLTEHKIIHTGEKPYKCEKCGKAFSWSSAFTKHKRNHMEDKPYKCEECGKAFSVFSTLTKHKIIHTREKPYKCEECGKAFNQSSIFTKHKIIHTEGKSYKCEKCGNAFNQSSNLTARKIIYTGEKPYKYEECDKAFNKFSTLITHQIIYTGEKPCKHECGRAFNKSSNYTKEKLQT
UniProt Q12982: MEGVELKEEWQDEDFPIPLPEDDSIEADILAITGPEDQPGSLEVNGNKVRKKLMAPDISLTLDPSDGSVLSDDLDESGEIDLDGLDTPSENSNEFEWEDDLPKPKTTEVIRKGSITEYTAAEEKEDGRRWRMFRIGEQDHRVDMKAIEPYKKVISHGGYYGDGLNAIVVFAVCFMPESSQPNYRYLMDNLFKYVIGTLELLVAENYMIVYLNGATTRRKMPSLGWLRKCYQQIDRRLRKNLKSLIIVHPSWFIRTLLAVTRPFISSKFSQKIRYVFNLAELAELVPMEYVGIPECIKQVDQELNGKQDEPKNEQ
UniProt Q03426, whole entry: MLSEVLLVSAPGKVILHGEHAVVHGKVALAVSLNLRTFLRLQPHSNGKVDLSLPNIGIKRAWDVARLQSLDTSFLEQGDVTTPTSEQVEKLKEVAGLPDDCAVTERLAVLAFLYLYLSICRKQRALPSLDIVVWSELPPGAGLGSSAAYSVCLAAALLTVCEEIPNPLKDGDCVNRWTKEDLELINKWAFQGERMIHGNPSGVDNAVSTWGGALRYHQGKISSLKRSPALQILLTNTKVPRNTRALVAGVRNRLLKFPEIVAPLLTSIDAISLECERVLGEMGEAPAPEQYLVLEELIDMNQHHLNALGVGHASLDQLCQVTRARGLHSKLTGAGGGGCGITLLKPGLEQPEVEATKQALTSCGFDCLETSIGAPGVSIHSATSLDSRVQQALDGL
UniProt Q02086: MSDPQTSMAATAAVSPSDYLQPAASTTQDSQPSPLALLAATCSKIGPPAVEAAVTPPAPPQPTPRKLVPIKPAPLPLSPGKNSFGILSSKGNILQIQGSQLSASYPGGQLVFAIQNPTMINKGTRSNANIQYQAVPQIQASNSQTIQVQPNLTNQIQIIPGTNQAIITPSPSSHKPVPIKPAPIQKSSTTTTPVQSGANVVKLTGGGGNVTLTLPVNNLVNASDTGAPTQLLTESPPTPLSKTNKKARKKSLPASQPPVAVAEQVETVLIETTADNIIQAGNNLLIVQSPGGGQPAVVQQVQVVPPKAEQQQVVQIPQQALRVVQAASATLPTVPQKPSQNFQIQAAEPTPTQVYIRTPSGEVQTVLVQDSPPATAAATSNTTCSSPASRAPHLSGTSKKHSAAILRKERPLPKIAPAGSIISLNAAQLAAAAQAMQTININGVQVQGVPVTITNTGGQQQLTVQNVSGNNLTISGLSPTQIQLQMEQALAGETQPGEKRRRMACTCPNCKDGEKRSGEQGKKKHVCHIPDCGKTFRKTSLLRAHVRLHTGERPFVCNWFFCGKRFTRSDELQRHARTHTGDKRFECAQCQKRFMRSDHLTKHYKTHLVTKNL
UniProt Q0VGE8: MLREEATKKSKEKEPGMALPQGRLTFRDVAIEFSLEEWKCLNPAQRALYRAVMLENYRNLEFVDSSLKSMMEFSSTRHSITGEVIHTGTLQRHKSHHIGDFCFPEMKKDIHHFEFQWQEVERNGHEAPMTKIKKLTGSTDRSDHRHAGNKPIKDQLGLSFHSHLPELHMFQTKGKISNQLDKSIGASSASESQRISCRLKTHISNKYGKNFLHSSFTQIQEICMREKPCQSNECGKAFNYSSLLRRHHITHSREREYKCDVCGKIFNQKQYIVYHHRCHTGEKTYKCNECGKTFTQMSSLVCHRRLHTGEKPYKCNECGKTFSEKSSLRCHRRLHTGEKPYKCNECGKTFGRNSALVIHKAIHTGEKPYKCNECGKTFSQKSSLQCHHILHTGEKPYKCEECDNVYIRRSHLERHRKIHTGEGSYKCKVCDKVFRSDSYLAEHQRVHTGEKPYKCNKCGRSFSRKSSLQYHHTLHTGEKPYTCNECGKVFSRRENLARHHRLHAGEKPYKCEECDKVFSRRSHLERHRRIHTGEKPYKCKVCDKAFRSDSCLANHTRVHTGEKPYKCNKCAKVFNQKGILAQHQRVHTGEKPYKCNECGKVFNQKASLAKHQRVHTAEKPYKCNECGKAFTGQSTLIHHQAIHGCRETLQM

What follows are targets tested with Cc1nc(Nc2ncc(C(=O)Nc3c(C)cccc3Cl)s2)cc(N2CCN(CCO)CC2)n1 [dasatinib] (assay: log2 fold change of tryptic peptide abundance, ligand vs vehicle (limited proteolysis) (log2 ratio); higher = more trypsin-susceptible (destabilized)). Conditions: ligand concentration: 5 uM; sample: K562 cleared lysate.
“CAMSAP2 (peptide sequence: LNSSLHFLQQEMQR, peptide start residue: 898) (UniProt Q08AD1)” showed a log2 fold change of -0.194. With “KIF1A (peptide sequence: ISLVDLAGSERADSTGAK, peptide start residue: 244) (UniProt Q12756)” the log2 fold change was -0.429. “GRSF1 (peptide sequence: WVLGALLR, peptide start residue: 6) (UniProt Q12849)” showed a log2 fold change of -0.545. “UniProt Q12798 (peptide sequence: MSEKDTKEEILK, peptide start residue: 97)” was tested, and the log2 fold change was 0.156. For “ZNF92 (peptide sequence: YGHENLQLR, peptide start residue: 106) (UniProt Q03936)”, the log2 fold change was 0.278. In the case of “BNIP2 (peptide sequence: QDEPKNEQ, peptide start residue: 307) (UniProt Q12982)”, the log2 fold change is reported as 0.505. In the case of “UniProt P98168 (peptide sequence: SSLYIHSK, peptide start residue: 433)”, the log2 fold change is reported as -0.0825. Target “GBE1 (peptide sequence: GNNESYHYAR, peptide start residue: 555) (UniProt Q04446)” has a log2 fold change of -0.124. For “MVK (peptide sequence: LQPHSNGK, peptide start residue: 41) (UniProt Q03426)”, the log2 fold change was -0.295. Work on “SP2 (peptide sequence: LVPIKPAPLPLSPGK, peptide start residue: 67) (UniProt Q02086)” yielded a log2 fold change of 0.492. For “ZNF816 (peptide sequence: NGHEAPMTK, peptide start residue: 123) (UniProt Q0VGE8)”, the log2 fold change was -0.325.
